No constants are given. Whether binding was seen depends on the method and setting. In cells and extracts the contact can be indirect. Some entries that bind do so weakly or less than the wild type.
Target: Par3, endogenous in KSHV-positive PEL cell lines BC-3 and BCBL1 (human (endogenous in BC-3 and BCBL1)) (UniProt Q8TEW0)
Assay: co-IP; endogenous immunoprecipitation with Par3 specific polyclonal antibody and isotype control from whole cell lysates of KSHV-positive BC-3 and BCBL1 cells (KSHV-negative BJAB alongside)

By UniProt entry, the sequences of proteins in these tests, tags left out.
UniProt Q8TEW0: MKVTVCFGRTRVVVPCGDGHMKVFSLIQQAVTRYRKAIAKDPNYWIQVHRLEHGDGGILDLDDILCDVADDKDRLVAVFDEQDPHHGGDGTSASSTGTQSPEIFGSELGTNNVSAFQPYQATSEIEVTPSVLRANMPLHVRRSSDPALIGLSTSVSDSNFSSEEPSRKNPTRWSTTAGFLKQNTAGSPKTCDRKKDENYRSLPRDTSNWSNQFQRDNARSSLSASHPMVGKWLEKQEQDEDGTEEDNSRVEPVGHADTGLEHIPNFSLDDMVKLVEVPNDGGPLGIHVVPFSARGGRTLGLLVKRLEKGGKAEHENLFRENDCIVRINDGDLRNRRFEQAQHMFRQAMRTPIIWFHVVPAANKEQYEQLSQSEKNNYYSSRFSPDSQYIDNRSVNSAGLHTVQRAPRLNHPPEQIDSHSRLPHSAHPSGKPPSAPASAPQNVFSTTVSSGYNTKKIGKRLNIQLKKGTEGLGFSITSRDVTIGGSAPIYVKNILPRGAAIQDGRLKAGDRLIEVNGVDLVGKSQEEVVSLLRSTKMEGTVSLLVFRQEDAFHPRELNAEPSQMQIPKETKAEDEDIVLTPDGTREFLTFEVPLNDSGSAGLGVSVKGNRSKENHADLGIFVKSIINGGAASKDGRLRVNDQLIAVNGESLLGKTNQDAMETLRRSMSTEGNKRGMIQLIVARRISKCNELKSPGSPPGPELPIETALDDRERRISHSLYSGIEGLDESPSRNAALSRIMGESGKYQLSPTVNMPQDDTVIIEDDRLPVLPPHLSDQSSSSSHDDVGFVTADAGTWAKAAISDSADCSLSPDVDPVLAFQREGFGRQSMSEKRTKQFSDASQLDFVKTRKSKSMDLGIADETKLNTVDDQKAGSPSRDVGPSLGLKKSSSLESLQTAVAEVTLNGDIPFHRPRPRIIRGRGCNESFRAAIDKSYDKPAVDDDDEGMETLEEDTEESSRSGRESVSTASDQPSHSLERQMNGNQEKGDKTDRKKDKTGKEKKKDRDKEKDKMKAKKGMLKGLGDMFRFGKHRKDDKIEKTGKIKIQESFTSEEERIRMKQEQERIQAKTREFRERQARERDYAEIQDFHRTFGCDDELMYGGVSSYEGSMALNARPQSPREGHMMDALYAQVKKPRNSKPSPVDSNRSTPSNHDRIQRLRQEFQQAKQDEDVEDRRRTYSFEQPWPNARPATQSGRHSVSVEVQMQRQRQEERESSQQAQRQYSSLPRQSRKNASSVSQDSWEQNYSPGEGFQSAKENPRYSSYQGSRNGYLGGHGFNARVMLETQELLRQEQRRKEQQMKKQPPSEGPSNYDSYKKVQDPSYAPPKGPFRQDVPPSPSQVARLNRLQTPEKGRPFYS
UniProt Q9QR71: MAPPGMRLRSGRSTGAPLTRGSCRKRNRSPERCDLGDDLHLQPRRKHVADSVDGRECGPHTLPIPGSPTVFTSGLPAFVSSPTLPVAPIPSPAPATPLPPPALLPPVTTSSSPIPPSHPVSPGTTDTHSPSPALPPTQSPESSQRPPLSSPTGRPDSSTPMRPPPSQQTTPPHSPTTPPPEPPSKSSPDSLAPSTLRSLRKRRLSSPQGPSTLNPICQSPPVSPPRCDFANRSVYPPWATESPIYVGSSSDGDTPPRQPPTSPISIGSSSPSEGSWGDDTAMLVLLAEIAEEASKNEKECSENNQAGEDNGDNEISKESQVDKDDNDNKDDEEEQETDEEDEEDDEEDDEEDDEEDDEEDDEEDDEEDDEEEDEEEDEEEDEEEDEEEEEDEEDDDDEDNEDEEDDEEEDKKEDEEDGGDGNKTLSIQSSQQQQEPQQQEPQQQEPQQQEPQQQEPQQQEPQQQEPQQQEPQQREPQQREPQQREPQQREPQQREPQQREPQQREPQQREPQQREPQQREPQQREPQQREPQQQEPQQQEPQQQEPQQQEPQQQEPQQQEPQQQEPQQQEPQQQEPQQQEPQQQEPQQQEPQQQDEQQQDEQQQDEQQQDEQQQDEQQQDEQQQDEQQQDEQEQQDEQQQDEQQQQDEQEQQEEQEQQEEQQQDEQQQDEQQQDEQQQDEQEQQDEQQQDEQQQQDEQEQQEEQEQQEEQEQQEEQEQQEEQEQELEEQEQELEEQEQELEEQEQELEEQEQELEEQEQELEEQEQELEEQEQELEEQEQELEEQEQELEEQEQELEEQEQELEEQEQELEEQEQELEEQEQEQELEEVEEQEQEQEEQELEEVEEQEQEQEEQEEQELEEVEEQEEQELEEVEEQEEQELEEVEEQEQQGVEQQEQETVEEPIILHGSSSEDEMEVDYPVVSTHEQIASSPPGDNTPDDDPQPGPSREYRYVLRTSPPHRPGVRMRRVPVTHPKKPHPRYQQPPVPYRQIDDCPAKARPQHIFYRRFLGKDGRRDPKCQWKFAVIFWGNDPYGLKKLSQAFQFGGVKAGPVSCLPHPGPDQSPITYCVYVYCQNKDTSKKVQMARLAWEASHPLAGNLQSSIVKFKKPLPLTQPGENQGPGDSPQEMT

Which binding does the source give for “LANA, endogenous in KSHV-positive PEL cell lines BC-3 and BCBL1 (from UniProt Q9QR71 1-1129)” here?
Its binding is “binds”.

— publication PMC4963126
